Test results published in PubChem BioAssay AID2685 (National Center for Advancing Translational Sciences (NCATS), 2010).
Out of some 320,000 compounds screened, about 2,100 (0.66%) were called active. The call rests on the fitted dose curve; in most records, active means well fitted inhibition curve with a large enough effect in the signal ratio, with a control signal flat (not every such curve was filed as active); inconclusive means small, poorly fitted or top-dose-only effect, or effect the other way, or a change in a side signal; inactive means flat fitted curve, though single readings scatter; the % refers to the signal ratio. The inconclusive results got no clear call from the source. Potencies of inconclusive entries are doubtful fits and often do not repeat.

Test: qHTS Assay for Lipid Storage Modulators in Drosophila S3 Cells
Conditions: BODIPY lipid droplet fluorescence, 18-24 h, cells fed with added oleic acid; lipid storage change, negative = inhibition: at 46.1 µM (top of the series) unless noted
Outline: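 Drosophila S3 cells got compounds at several concentrations plus oleic acid (400 uM solution). Laser-scanning cytometry with 488 nm excitation read lipid droplets at 500-530 nm and cells at 575-640 nm. Percent activity was relative to 20 uM Triacsin C.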
On the % scale 0 is the no-effect control and ±100 the full control effect; potency means the concentration at half of the fitted maximal effect.

Lipid storage change, negative = inhibition, inconclusive:
COc1cc(/C=C2\SC(=S)N(N3CCOCC3)C2=O)cc(OC)c1OC -10.3%, CCCN1CCC(NC(=S)Nc2cccc(Cl)c2Cl)CC1 43.4%, CC(c1ccccc1)n1c(Cn2ncc3ccccc3c2=O)n[nH]c1=S (stereo unspecified) 24.6%, Cc1ccc(-c2nc3cccnc3s2)cc1NS(=O)(=O)c1ccc2c(c1)OCCO2 18.4%, Cc1cc(C)nc(-n2nc(C)cc2NC(=O)c2ccc(F)cc2F)n1 -15.1%, Cc1cc(Nc2ccc3c(c2)OCCO3)n2nc(C)nc2n1 19%, CC(=O)N1CCN(C(=O)CCN(c2ccccc2)S(=O)(=O)c2ccc(C)cc2)CC1 17%, Cc1c(C)n(CC(O)CNCCO)c2ccccc12 (stereo unspecified) 0.857%, NS(=O)(=O)c1ccc(N/N=C2/CCCc3ccccc32)c([N+](=O)[O-])c1 7.24%, C/C=C(\C)CN1CCC(n2nccc2NC(=O)CCc2ccccc2)CC1 93.6%, O=C(NCc1ccco1)c1cc(NS(=O)(=O)c2cccc([N+](=O)[O-])c2)ccc1O 42.7%, CC(Sc1nnc(-c2ccc(Cl)cc2)n1C)C(N)=O (stereo unspecified) -24.1%, NC(=O)C1CCN(S(=O)(=O)c2ccccc2[N+](=O)[O-])CC1 18.5%, Nn1c(SCC(=O)Nc2cccnc2Cl)nnc1-c1ccccc1 83.2%

Potency, inconclusive:
CCOC(=O)CCC(=O)Nc1ccc(S(=O)(=O)Nc2cc(OC)nc(OC)n2)cc1 29.1 µM [activator, single point], Cn1c(N=NC(=O)c2ccccc2)c(O)c2ccccc21 32.6 µM [falling, partial curve, poor fit], COc1ccc(CCNC(=O)C2CCN(S(=O)(=O)c3ccc(NC(C)=O)cc3)CC2)cc1OC 4.61 µM [rising, partial curve], Cc1ccnc(NC(=O)C2CC(=O)N(c3ccc4c(c3)OCCO4)C2)c1 (stereo unspecified) 29.1 µM [activator, single point], COc1ccccc1OC(=O)c1ccc(SC)cc1OC 20.6 µM [activator, single point], Cc1cccc(OCCOC(=O)C2CCN(S(=O)(=O)c3ccc(C)c(C)c3)CC2)c1 28.2 µM [activator, single point], Cc1[nH]c2ccccc2c1/C=N/Nc1ccc(F)cc1F 18.4 µM [falling, single point]
